Reference: publication PMC3082224
These are yes or no findings as the source states them, for the method shown. Binding seen in cells or lysates may run through a third protein. Some binding calls cover weakened binding; strength is not graded here.

By UniProt entry, the sequences of proteins in these tests, tags left out. Where a name states a change or a piece, a line headed by the entry shows the natural chain unless it says otherwise.
UniProt P40763: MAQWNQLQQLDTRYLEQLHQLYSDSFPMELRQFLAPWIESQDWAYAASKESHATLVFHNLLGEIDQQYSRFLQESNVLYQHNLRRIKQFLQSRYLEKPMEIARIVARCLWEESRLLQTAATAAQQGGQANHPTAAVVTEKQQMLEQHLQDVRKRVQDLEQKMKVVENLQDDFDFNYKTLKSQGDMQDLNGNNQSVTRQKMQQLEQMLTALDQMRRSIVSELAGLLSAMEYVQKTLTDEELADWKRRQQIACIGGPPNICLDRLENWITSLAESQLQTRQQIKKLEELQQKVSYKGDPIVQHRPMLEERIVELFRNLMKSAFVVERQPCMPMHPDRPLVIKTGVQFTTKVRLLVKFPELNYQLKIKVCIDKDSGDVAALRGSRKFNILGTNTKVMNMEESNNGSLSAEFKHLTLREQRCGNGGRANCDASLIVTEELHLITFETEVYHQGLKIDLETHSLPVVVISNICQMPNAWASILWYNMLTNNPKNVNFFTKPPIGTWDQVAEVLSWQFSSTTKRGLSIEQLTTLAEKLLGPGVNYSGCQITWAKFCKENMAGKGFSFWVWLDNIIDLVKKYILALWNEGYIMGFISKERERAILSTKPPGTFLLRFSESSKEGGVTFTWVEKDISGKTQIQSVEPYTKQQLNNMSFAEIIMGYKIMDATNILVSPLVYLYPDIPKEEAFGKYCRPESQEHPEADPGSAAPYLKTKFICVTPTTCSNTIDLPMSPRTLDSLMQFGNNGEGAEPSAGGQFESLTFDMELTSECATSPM
UniProt P19838: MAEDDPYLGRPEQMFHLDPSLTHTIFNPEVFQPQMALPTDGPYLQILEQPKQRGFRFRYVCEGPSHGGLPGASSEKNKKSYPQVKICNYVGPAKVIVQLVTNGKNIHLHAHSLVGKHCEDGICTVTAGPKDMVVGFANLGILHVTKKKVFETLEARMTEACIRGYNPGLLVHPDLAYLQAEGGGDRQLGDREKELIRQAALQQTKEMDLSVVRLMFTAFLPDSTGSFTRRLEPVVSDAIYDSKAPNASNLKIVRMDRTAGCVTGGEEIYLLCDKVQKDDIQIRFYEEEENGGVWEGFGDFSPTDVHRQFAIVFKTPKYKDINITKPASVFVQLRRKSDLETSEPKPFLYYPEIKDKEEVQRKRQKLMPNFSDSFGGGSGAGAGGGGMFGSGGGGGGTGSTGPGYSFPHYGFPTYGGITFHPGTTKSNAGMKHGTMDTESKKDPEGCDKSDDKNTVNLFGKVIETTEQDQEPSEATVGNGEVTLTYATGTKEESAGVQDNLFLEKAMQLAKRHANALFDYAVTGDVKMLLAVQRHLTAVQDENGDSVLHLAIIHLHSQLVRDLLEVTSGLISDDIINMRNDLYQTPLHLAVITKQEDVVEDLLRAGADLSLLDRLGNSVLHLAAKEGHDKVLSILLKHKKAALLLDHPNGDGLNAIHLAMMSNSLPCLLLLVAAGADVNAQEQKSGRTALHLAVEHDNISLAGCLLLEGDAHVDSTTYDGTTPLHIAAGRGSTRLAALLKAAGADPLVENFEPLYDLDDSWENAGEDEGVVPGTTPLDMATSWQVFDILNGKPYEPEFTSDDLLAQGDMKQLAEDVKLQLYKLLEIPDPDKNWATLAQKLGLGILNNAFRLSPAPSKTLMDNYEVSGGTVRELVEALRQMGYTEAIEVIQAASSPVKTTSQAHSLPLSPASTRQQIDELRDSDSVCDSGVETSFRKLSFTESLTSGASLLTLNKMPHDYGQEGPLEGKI

Target: activated STAT3 (phospho-STAT3) trapped on the biotinylated STAT3-decoy ODN (human (endogenous in SW 480)) (UniProt P40763)
Test: pull-down; biotinylated STAT3-decoy ODN with cytoplasmic and nuclear fractions of untreated or IL-6-treated (50 ng/ml) SW 480 cells, avidin-Sepharose beads; western blot with NF-κB antibody

binding: binds
Substance: NF-κB (from UniProt P19838 1-433; Q04206 1-551) (complex)
